Results are given in words; binding and its absence hold for the method and conditions named. In cells and extracts the contact can be indirect. A yes stands for co-enrichment or nearness to the bait. Other partners may have been found.
Legend:
[1] = target: flag-FIP200 (human) (UniProt Q8TDY2); assay: affinity purification with mass spectrometry; pulldown in cells transfected with flag-FIP200 or flag-FIP200 K1133R, MS analysis of the total proteins bound to FIP200 (Figure S3)
[2] = target: flag-FIP200 K1133R (human) (UniProt Q8TDY2); assay: as above
[3] = target: SET domain containing 2 (SETD2), endogenous (human (endogenous in HEK293)) (UniProt Q9BYW2); assay: affinity purification with mass spectrometry; SETD2 pulldown from HEK293 lysate, MS analysis (Figure S2)

Sequences of proteins named here, by UniProt entry; tags and fusion partners are left off. A change or cut given only in a name is not applied to a line headed by its entry.
UniProt Q8TDY2: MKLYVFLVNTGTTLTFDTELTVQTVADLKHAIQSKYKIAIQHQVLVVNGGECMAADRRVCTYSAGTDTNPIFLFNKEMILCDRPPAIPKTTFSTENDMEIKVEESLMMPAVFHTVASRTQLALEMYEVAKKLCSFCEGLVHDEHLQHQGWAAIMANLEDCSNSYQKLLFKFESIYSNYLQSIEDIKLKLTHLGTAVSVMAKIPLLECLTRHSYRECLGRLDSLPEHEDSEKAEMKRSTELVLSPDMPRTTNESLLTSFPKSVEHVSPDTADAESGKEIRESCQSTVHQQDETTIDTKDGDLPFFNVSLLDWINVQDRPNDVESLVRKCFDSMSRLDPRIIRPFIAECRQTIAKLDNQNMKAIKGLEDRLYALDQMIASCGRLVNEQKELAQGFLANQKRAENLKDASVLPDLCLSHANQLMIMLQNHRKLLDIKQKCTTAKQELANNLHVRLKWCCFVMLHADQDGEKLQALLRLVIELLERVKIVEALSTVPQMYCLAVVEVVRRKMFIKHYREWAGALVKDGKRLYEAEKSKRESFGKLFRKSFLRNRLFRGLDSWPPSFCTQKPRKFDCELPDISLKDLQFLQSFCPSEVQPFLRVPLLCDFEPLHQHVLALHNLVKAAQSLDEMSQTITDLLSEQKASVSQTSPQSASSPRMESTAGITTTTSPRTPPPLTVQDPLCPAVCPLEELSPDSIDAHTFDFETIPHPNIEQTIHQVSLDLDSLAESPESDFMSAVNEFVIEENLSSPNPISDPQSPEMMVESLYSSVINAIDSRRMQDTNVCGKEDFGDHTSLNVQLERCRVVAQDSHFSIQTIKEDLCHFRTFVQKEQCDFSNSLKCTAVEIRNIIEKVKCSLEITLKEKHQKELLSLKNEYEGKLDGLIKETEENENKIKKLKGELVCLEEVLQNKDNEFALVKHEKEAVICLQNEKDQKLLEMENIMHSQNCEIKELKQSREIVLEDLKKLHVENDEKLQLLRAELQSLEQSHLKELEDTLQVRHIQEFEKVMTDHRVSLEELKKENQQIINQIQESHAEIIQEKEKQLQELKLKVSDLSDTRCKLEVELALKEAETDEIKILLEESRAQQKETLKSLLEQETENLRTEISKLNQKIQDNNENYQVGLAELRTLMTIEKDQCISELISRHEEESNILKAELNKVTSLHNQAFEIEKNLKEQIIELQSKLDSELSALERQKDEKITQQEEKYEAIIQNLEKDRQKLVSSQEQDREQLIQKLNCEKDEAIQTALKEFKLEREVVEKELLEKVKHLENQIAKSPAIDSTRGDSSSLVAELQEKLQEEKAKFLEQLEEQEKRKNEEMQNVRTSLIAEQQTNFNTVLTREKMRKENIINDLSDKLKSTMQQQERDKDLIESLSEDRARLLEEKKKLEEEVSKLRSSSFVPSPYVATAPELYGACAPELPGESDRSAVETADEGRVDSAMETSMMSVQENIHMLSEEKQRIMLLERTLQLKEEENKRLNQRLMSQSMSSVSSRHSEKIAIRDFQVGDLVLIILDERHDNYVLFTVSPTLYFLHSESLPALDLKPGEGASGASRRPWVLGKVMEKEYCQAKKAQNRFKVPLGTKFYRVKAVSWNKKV
UniProt Q9BYW2: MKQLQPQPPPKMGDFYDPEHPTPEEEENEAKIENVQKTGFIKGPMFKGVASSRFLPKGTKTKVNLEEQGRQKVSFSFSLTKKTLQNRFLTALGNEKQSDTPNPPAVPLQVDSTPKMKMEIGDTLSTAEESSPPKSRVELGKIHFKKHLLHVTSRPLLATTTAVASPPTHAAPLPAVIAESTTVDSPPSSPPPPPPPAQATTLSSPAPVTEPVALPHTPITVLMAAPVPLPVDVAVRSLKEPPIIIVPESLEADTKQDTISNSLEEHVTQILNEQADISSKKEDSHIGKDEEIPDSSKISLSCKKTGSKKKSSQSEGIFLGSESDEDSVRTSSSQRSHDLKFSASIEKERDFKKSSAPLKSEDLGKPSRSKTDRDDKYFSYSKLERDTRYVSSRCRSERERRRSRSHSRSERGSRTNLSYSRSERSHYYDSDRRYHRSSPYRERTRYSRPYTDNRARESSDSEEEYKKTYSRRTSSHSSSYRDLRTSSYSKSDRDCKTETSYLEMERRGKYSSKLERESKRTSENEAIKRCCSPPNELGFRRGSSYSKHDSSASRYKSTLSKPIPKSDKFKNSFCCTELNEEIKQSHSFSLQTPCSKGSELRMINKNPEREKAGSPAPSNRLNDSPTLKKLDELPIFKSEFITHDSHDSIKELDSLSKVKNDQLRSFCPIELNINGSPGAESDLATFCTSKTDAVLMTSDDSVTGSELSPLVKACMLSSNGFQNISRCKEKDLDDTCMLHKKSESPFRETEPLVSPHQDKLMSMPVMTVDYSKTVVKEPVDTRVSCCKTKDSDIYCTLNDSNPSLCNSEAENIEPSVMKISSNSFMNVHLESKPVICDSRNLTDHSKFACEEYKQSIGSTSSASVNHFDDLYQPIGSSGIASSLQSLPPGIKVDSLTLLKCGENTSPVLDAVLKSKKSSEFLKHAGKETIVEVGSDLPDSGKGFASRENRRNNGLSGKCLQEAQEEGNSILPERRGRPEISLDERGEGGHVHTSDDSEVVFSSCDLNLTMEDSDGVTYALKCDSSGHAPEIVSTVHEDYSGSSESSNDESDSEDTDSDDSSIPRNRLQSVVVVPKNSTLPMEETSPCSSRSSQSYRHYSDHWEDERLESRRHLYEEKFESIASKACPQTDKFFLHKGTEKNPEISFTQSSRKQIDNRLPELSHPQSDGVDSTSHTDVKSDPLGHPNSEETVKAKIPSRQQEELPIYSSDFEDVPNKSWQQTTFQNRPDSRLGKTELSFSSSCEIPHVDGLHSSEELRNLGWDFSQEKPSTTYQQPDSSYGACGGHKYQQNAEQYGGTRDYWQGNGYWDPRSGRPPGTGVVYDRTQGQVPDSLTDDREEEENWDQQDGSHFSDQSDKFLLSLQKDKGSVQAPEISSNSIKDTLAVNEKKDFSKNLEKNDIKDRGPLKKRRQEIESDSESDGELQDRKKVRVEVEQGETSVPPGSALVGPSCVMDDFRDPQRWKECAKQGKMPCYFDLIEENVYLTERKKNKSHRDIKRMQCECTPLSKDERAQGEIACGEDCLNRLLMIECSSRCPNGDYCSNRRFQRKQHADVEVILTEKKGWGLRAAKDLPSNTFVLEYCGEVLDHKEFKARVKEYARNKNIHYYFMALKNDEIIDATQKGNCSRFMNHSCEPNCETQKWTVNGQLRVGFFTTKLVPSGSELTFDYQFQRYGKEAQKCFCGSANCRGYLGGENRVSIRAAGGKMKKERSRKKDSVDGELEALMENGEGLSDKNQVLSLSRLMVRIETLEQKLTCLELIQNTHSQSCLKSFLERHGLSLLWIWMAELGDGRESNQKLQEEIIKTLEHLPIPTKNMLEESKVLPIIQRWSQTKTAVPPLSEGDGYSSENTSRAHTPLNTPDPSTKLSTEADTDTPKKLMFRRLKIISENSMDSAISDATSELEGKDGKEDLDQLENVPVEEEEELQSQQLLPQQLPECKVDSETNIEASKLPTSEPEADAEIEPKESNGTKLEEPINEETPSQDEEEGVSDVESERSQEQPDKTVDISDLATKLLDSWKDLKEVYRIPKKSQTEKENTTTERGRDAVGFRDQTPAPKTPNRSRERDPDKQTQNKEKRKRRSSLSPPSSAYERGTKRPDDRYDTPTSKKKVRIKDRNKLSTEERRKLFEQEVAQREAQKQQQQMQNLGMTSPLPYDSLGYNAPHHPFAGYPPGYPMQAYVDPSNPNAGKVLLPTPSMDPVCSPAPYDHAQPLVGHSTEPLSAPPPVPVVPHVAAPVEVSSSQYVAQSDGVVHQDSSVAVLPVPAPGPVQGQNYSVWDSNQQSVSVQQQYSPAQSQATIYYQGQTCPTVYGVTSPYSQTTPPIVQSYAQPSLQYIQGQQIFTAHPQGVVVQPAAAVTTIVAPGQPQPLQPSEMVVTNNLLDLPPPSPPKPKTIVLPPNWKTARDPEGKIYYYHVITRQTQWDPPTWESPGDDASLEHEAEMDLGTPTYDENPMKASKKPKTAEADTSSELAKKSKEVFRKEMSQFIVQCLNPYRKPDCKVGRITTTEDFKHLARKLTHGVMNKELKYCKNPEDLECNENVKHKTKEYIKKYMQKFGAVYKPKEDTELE
UniProt P19474: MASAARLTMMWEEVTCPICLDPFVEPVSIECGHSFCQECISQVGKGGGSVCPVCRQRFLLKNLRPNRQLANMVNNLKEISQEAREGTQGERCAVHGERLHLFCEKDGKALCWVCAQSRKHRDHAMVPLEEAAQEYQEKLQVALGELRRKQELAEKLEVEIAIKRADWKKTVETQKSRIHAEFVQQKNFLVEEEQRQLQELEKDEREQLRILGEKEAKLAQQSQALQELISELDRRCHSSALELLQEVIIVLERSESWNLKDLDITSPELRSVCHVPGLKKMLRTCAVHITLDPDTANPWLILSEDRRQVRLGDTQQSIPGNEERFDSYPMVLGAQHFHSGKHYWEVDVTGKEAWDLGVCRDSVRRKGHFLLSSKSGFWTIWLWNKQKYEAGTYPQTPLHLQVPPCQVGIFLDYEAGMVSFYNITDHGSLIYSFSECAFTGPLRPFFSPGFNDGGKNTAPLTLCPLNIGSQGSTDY

binding [1]	binding [2]	binding [3]	Substance
binds	binds		Trim21, endogenous (from UniProt P19474 1-475) (enzyme)
		binds	focal adhesion kinase family interacting protein of 200 kD (FIP200), endogenous (from UniProt Q8TDY2 1-1594)
